From patent US20210188972A1 (A AND G PHARMACEUTICAL, published 2021) come the findings set out here.

Assay [1] deals with T1, Prostaglandin F2 Receptor Inhibitor (PTGFRN), human, on cells (human) (UniProt Q9P2B2).
T1 sequence (looked up): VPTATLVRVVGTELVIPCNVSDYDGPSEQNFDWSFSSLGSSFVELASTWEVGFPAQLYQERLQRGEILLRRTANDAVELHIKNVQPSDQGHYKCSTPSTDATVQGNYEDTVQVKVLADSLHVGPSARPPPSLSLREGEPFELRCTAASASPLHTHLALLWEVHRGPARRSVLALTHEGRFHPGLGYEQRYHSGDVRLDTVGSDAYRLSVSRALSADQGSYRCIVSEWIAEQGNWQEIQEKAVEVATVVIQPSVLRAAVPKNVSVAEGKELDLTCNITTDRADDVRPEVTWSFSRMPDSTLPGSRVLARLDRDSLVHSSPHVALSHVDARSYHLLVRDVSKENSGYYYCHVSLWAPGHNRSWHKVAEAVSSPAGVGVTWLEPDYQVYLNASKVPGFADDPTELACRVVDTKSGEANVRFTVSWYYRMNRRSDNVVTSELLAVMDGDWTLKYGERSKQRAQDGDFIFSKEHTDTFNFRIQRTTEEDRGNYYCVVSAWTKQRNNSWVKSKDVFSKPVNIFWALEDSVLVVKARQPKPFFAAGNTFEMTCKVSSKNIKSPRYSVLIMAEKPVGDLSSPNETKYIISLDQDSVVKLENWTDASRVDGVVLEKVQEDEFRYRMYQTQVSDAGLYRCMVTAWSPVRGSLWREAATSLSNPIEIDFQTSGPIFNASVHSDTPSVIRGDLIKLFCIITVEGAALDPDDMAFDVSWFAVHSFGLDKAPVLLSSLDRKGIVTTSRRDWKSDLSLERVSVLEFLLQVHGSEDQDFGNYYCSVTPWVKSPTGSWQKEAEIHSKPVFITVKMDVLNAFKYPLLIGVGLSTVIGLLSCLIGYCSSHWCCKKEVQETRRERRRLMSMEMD
Kind of assay: flow binding assay on DAOY cells.

Assay [2] has as its target T1, Prostaglandin F2 Receptor Inhibitor (PTGFRN), human, on cells (human). The experiment in a line: flow binding assay on A431 cells; concentration not given.

Results are given in words; binding and its absence hold for the method and conditions named. Some entries that bind do so weakly or less than the wild type. Where a sequence is shown, tags or fusion partners need not be part of it.

B1: 3E10 (antibody, V domains shown)
VH: EVHLVESGGDLVKPGGSLKLSCAASGFTFSSYGMSWVRQTPDKRLEWVASISSGGSHTYYPDRVKGRFTISRDNAKNTLYLQMSSLKSEDTAMYYCARHPSYYGSSLYCFDYWGQGTTLTVSS
VL: DIQMTQTTSSLSASLGDRVTISCRASQDISNYLNWYQQKPDGTVKLLIYYTSRLHSGVPSRFSGSGSGTDFSLTISNLEQEDVATYFCQQGSTLPWTFGGGTKLEIK
As to B1, the binding entry in assay [1] and in assay [2] was “binds” throughout.
